Experiment in all cases: log2 fold change, soluble protein after heating vs DMSO (PISA); higher = thermal stabilisation; K562 cells, 10 uM, 30 min; active = over 0.2 and 3.5 SD of the protein, either way, in both replicates (recomputed)
Compound in assay [1]: C1=CC=C(C=C1)[C@H](COC2=CC3=C(C=C2)NC(=O)N3)NC(=O)C4=CC=CN(C4=O)CC5=CC(=C(C=C5)F)F
A digest of the protocol:
(§1)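 Aliquots of K562 cells (2×10^6 cells/mL) treated with 10 μM compound for 30 min were heated for 3 min over 48°C-58°C. After pooling and extraction in PBS with 0.5% NP-40 at 4°C, soluble protein from a 21,000xg, 90 min spin was quantified by TMTpro 16plex LC-MS/MS with channel sums equalised. Thermal stability is expressed against control samples, from duplicates, as a log2 fold change.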

Compound in assay [2]: CC1=C(SC2=C1C(=N[C@H](C3=NN=C(N32)C)CC(=O)N)C4=CC=C(C=C4)Cl)C
Put shortly: as §1

Compound in assay [3]: CC1=C2C(=CC=C1)N=C(N(C2=O)C3=CC=CC=C3C)CN4C=NC5=C(N=CN=C54)N
A digest of the protocol: as §1

Compound in assay [4]: Cc1sc2c(c1C)C(c1ccc(Cl)cc1)=N[C@@H](CC(=O)OC(C)(C)C)c1nnc(C)n1-2
A digest of the protocol: as §1

Compound in assay [5]: c1ccc([C@@H]2C[C@H]2NC2CCNCC2)cc1
Put shortly:
as §1

This is one part of the list.

As for PRNP (UniProt P04156), the log2 fold change in assay [1] is inactive: 0.043.
Consider PRMT3 (UniProt O60678), for which the log2 fold change in assay [1] is inactive: -0.1; in assay [2], inactive: 0.077; in assay [3], inactive: 0.024; in assay [4] it was inactive: -0.013; in assay [5], inactive: 0.001.
Turning to PPM1E (UniProt Q8WY54), the log2 fold change in assay [1] is inactive: -0.019; in assay [2] it was inactive: 0.186; in assay [3] it was inactive: 0.024; in assay [4], inactive: 0.022; in assay [5] it was inactive: -0.176.
In the case of PRKACB isoform 2 (UniProt P22694), the log2 fold change in assay [1] is inactive: -0.06; in assay [2] it was inactive: 0.021; in assay [3], inactive: 0.032; in assay [4] it was inactive: -0.038; in assay [5] it was inactive: 0.003.
On to PREPL (UniProt Q4J6C6), for which the log2 fold change in assay [1] was inactive: -0.025; in assay [2], inactive: 0.009; in assay [3], inactive: 0.017; in assay [4], inactive: -0.012; in assay [5] it was inactive: 0.003.
For PPP4R3B (UniProt Q5MIZ7), in that order: inactive: -0.014, inactive: 0.069, inactive: 0.134, inactive: 0.003 and inactive: -0.005.
Take PPM1B isoform 2 (UniProt O75688): the log2 fold change in assay [1] was inactive: -0.02.
PPP6R3 isoform 5 (UniProt Q5H9R7): the log2 fold change in assay [1] was inactive: 0.008; in assay [2], inactive: 0.045; in assay [3] it was inactive: 0.022; in assay [4], inactive: -0.01; in assay [5], inactive: -0.013.
For PRDX6 (UniProt P30041), in that order: inactive: -0.011, inactive: 0.076, inactive: 0.063, inactive: 0.006 and inactive: -0.004.
In the same order, the values of PROCR (UniProt Q9UNN8) are inactive: 0.056, inactive: 0.07, inactive: -0.026, inactive: -0.055 and inactive: 0.052.
In the same order, the values of PRPF31 (UniProt Q8WWY3) are inactive: -0.07, inactive: 0.028, inactive: 0.174, inactive: -0.087 and inactive: 0.005.
PRKCE (UniProt Q02156): the log2 fold change in assay [1] is inactive: -0.065; in assay [2], inactive: 0.033; in assay [3], inactive: 0.071; in assay [4] it was inactive: 0.018; in assay [5], inactive: 0.
For PRRC1 (UniProt Q96M27), in that order: inactive: 0.022, inactive: 0.003, inactive: 0, inactive: 0.024 and inactive: 0.018.
For PPM1G (UniProt O15355), in that order: inactive: -0.139, inactive: 0.025, inactive: 0.081, inactive: 0.002 and inactive: -0.089.
For PRKCI (UniProt P41743), in that order: inactive: -0.049, inactive: 0.074, inactive: 0.134, inactive: 0.006 and inactive: -0.07.
As for PRKCA (UniProt P17252), the log2 fold change in assay [1] is inactive: -0.035; in assay [2] it was inactive: 0.124; in assay [3], inactive: 0.14; in assay [4], inactive: 0.002; in assay [5], inactive: -0.038.
On to PPP3R1 (UniProt P63098), for which the log2 fold change in assay [1] was inactive: 0.041; in assay [2], inactive: 0.057; in assay [3], inactive: 0.048; in assay [4] it was inactive: -0.013; in assay [5] it was inactive: -0.021.
On to PPP1R12A (UniProt O14974), for which the log2 fold change in assay [1] was inactive: 0.005; in assay [2], inactive: 0.057; in assay [3], inactive: 0.047; in assay [4], inactive: 0.035; in assay [5] it was inactive: -0.008.
In the case of PRPF38B (UniProt Q5VTL8), the log2 fold change was inactive: 0.038 in assay [1]; inactive: 0.066 in assay [2]; inactive: 0.052 in assay [3]; inactive: 0.056 in assay [4]; inactive: 0.032 in assay [5].
In the same order, the values of PRPS1 (UniProt P60891) are inactive: 0.05, inactive: -0.012, inactive: -0.011, inactive: -0.037 and inactive: 0.026.
Take PPP1CC (UniProt F8W1A0): in assay [1], the log2 fold change is inactive: 0.046.
PPP2R5E (UniProt Q16537): the log2 fold change in assay [1] is inactive: -0.045; in assay [2] it was inactive: 0.1; in assay [3], inactive: 0.105; in assay [4] it was inactive: -0.118; in assay [5], inactive: 0.05.
In the case of PRF1 (UniProt P14222), in assay [1], the log2 fold change was inactive: -0.058.
As for PPP1R12B isoform 6 (UniProt O60237), the log2 fold change in assay [1] is inactive: -0.051.
Still for that read-out and setting: next, PRKX (UniProt P51817): active: -0.754.
On to PPP1R9B (UniProt Q96SB3), for which the log2 fold change in assay [1] is inactive: 0.244; in assay [2], inactive: -0.213; in assay [3], inactive: -0.051; in assay [4] it was inactive: 0.039; in assay [5], inactive: 0.044.
In the same order, the values of PRDX3 (UniProt P30048) are inactive: 0.001, inactive: 0.019, inactive: -0.06, inactive: 0.018 and inactive: 0.041.
Turning to PRR4 (UniProt Q16378), in assay [1], the log2 fold change is inactive: -0.006.
For the target PRCC (UniProt Q92733), the log2 fold change in assay [1] is inactive: 0.051; in assay [2] it was inactive: 0.006; in assay [3], inactive: 0.016; in assay [4] it was inactive: 0.024; in assay [5] it was inactive: 0.067.

The values are drawn from the supplement of paper PMC10849652.
